Reference: patent publication US20190010493A1 (published 2019)
No constants are given. Whether binding was seen depends on the method and setting. In cells and extracts the contact can be indirect. Some entries that bind do so weakly or less than the wild type. Tags and fused reporters may be left off the sequences shown.

Protein sequences, listed by entry. Tags and fused reporters are not part of them. Lines headed by an entry give the natural chain unless they say otherwise; changes in a name come on top.
UniProt Q9WVC7: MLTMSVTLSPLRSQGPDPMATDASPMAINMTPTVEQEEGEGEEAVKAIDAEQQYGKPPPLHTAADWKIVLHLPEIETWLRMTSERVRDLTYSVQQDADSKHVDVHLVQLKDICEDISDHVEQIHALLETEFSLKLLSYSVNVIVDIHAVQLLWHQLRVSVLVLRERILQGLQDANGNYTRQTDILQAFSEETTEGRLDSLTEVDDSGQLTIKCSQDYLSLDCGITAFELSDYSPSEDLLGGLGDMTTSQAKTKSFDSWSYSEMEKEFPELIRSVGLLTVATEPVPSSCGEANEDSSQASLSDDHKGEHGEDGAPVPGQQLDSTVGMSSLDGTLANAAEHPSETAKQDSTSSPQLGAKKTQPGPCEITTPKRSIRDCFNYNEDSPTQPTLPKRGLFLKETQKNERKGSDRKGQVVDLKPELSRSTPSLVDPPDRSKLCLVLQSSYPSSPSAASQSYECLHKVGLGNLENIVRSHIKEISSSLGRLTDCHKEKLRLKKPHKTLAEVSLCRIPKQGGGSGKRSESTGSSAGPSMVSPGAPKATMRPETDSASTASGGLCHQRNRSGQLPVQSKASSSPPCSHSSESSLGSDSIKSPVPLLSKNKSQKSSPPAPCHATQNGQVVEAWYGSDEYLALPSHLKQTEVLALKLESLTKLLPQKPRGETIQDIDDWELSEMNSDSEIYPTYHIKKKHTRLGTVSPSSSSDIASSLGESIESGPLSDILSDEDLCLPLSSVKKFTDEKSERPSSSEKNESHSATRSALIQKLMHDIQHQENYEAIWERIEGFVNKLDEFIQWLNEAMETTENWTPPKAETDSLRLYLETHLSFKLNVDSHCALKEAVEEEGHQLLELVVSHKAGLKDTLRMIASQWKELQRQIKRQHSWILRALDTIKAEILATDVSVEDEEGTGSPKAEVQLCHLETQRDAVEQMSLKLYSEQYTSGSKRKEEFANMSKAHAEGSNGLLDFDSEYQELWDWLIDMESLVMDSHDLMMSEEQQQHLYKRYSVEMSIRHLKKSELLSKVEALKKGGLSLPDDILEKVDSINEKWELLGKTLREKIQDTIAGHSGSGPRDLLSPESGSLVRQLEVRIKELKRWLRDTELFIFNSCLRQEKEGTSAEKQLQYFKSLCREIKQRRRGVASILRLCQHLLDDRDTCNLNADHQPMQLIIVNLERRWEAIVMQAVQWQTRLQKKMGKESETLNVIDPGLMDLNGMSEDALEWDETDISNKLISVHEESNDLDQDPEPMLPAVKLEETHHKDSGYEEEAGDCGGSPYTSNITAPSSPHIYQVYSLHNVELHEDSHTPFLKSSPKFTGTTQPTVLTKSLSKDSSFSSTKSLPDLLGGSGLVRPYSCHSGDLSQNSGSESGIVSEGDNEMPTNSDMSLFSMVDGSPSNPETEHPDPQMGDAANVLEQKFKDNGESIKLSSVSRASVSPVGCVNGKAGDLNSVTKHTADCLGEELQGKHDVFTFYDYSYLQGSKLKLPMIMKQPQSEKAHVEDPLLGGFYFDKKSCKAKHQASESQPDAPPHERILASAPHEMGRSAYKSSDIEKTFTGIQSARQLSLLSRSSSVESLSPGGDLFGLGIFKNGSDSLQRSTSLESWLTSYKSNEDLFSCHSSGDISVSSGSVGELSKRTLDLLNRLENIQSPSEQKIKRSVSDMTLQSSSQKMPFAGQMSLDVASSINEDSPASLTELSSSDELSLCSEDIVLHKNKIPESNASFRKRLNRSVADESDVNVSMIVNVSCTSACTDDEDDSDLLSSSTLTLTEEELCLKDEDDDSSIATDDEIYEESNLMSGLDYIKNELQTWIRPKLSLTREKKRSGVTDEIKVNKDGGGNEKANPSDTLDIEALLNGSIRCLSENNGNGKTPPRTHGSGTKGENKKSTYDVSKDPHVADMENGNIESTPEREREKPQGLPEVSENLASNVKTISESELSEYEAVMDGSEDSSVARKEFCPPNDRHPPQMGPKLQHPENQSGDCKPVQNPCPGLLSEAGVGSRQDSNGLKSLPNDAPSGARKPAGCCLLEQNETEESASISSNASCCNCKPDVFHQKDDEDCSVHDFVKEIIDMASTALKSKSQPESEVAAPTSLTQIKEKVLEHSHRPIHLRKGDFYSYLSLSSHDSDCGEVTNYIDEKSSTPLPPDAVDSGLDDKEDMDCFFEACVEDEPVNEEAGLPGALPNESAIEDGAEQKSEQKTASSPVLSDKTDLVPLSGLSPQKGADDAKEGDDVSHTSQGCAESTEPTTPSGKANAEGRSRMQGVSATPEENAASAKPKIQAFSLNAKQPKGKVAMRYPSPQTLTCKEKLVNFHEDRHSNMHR

Target: full-length mAKAPβ (muscle A-kinase anchoring protein, beta alternatively-spliced form) (rat) (UniProt Q9WVC7)
Test: co-immunoprecipitation

binding: binds
Binder: MDLSMKKFAVRRFFSVYLRRKSRSKSSSLSRLEEEGVVKEID (peptide, not shown: small tags and cut ends) [HA-RSK3 1 to 42 (unique N-terminal domain of RSK3)]
